# PubChem BioAssay AID1159584 | Peter MacCallum Cancer Centre, 2016
# Test: 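Genes whose loss is lethal only together with E-cadherin loss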 (primary screen)
# Cells: human MCF10A breast epithelial cells, parental and CDH1-null
# Reagents: siRNA against human genes
# Read-out: 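ATP luminescence (CellTiter-Glo) viability per line relative to mean mock wells over all plates, and the ratio of CDH1-null to parental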
# Scale: CDH1-null / parental viability ratio: higher = CDH1-null cells survive relatively better than parental; CDH1-null viability vs mock: higher = more viable CDH1-null cells; parental viability vs mock: higher = more viable parental cells
# Shown is one part, drawn at random, of about 18,000 reagents. Reagents against one gene are numbered here. Not given: the amount of reagent, the time to read-out.
target,reagent no.,CDH1-null / parental viability ratio,CDH1-null viability vs mock (fraction of mock),parental viability vs mock (fraction of mock)
CYBB,1,1.01,0.76,0.75
MYL11,1,1.56,0.61,0.39
SPMAP1,1,1.65,0.86,0.52
WAC,1,0.73,0.49,0.67
LUC7L2,1,1.09,0.48,0.44
MAB21L4,1,1.26,0.86,0.68
APOH,1,0.83,0.79,0.95
TXNRD3,1,1.01,1.2,1.19
TXNRD3,2,0.95,0.98,1.03
DARS1,1,0.55,0.4,0.73
OR2G2,1,1.08,1.04,0.96
EIF3D,1,1.04,0.5,0.48
SATB2,1,1.01,0.92,0.91
CKMT1A,1,1.53,0.89,0.58
RHOB,1,0.77,0.62,0.8
CST6,1,0.8,0.66,0.82
PIK3CG,1,0.79,0.62,0.78
SLC35G5,1,1.36,0.76,0.56
OR9K2,1,1.64,0.72,0.44
ZNF317,1,0.87,0.45,0.52
WNT6,1,1.16,1.15,0.99
OR5B21,1,0.84,0.62,0.74
SLX1A,1,1.03,0.6,0.58
OR9G4,1,1.08,1.1,1.02
CUL4B,1,1.24,0.82,0.66
PARP4,1,1.18,1.11,0.94
GFUS,1,0.83,0.45,0.54
FSTL5,1,0.83,0.8,0.96
BANF2,1,1.1,0.78,0.71
IQCF3,1,1.06,0.56,0.53
ARL5B,1,0.93,0.8,0.86
NCKAP5,1,1.04,0.55,0.53
STK4,1,1.08,0.96,0.89
SAG,1,1.1,0.8,0.73
PSMB5,1,1.17,0.47,0.4
FAM89A,1,1.11,0.59,0.53

Laid out differently: entries from further up
{"target":"OR9K2","reagent no.":1,"CDH1-null / parental viability ratio":1.64,"CDH1-null viability vs mock (fraction of mock)":0.72,"parental viability vs mock (fraction of mock)":0.44}
{"target":"ZNF317","reagent no.":1,"CDH1-null / parental viability ratio":0.87,"CDH1-null viability vs mock (fraction of mock)":0.45,"parental viability vs mock (fraction of mock)":0.52}
{"target":"WNT6","reagent no.":1,"CDH1-null / parental viability ratio":1.16,"CDH1-null viability vs mock (fraction of mock)":1.15,"parental viability vs mock (fraction of mock)":0.99}
{"target":"OR5B21","reagent no.":1,"CDH1-null / parental viability ratio":0.84,"CDH1-null viability vs mock (fraction of mock)":0.62,"parental viability vs mock (fraction of mock)":0.74}
{"target":"SLX1A","reagent no.":1,"CDH1-null / parental viability ratio":1.03,"CDH1-null viability vs mock (fraction of mock)":0.6,"parental viability vs mock (fraction of mock)":0.58}

Further reagents:
target,reagent no.,CDH1-null / parental viability ratio,CDH1-null viability vs mock (fraction of mock),parental viability vs mock (fraction of mock)
XRCC5,1,0.87,0.69,0.79
USP12,1,1.14,0.84,0.74
EGLN1,1,0.81,0.71,0.88
ALAS2,1,1.08,1,0.93
NOSTRIN,1,1.14,0.82,0.72
TNIP1,1,0.69,0.55,0.8
ILK,1,0.62,0.5,0.8
ILK,2,0.66,0.46,0.7
ATP2B4,1,0.94,1.02,1.08
ADRB2,1,1.55,0.9,0.58
GPR65,1,0.79,0.77,0.97
MLLT1,1,0.92,0.88,0.96
LPCAT1,1,0.95,0.8,0.84
SRXN1,1,1.74,0.87,0.5
PTPRF,1,1.19,0.76,0.64
FLRT3,1,0.81,0.84,1.04
OR6N1,1,1.42,0.54,0.38
MOB3B,1,1.09,0.84,0.77
FARSA,1,0.91,1.04,1.14
SNX27,1,1.02,0.83,0.81
SLC1A6,1,0.86,0.62,0.72
ANKRD13B,1,0.96,0.9,0.94
OR5M10,1,1.12,0.92,0.82
DUSP28,1,1.04,1.03,0.99
ETFDH,1,0.93,0.53,0.57
L2HGDH,1,0.91,0.86,0.94
RORA,1,0.95,0.74,0.78
GP6,1,0.95,0.84,0.88
PPT1,1,1.03,0.89,0.86
PLK3,1,0.84,0.76,0.9
CATSPERB,1,1.04,0.76,0.73
TMPRSS3,1,0.8,0.32,0.4
CPT1B,1,1.24,1.12,0.9
RAB2A,1,0.92,1.05,1.14
IL18RAP,1,1.02,0.85,0.83
TMPRSS2,1,1.16,0.88,0.76
CCDC124,1,0.69,0.68,0.99
CASP1,1,1,0.8,0.8
RALYL,1,0.91,1.02,1.12
DDX60,1,1.26,1.12,0.89
HYCC1,1,1.04,1.19,1.14
RHBDD1,1,1.04,0.75,0.72
ZSCAN9,1,0.95,0.94,0.99
KIF26B,1,0.85,0.67,0.79
VAV1,1,0.65,0.39,0.6
ARMCX5,1,1.21,0.8,0.66
CILP2,1,1.09,1.09,1
FAM131B,1,0.83,0.7,0.84
ABHD2,1,1.07,0.91,0.85
TMEM213,1,0.71,0.2,0.28
SELENOI,1,1.11,0.92,0.83
